From PubChem BioAssay AID1259415 (National Center for Advancing Translational Sciences (NCATS), 2018)
Among all 410,000 compounds or so, about 18,000 (4.4%) were called active. Inconclusive means that the source gave no clear call. Such entries were picked first, then a sample of the others. Cut-off read from the data, not from the text of the source: active = activity change below about -60%; inconclusive = no clear call, values can overlap the other calls; inactive = above about -39%.

assay: qHTS Assay for inhibitors of the human cytomegalovirus (HCMV); settings: HFF cells, HCMV-luciferase reporter, 72 h; at 57.5 µM; hits give low values
How it was run: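 Screen run at 2 compound doses on HFFs infected with reporter HCMV, MOI 1 PFU/cell. Luciferase activity from cell lysates at 72 h post infection gave inhibition relative to buffer-only and Salinomycin wells.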
% is set by controls: 0 for no effect and ±100 for the full control effect.

Structure (SMILES) | activity change, negative = inhibition
N#Cc1ccc(OCCOCCNC2CCCC2)cc1 | inconclusive: -40.9%
C/C1=C\CC(C)(C)/C=C/C(=O)[C@@H](C)CCC[C@H](C)CC(=O)C1 | inactive: -0.947%
CCn1nnnc1NC(=O)c1cc(Cl)c(OC)c(Cl)c1 | active: -62.9%
C/C(=N\NC(=O)c1ccc(CN2CCc3ccccc3C2)cc1)c1ccccc1O | active: -96.3%
CCOCCCNC(=S)N1CCN(c2nc(-c3ccccc3)cs2)CC1 | active: -86.1%
O=C(Nc1cccc(-c2cccc(Cl)c2)c1)C1CCN(Cc2ccc(CO)o2)CC1 | inconclusive: -50%
Cc1oc2c(CN3CCOCC3)c(O)ccc2c(=O)c1-c1ccc(Cl)cc1 | inconclusive: -50.2%
O=C(CSc1ncc(S(=O)(=O)c2ccccc2)c(=O)[nH]1)Nc1ccccc1Cl | inconclusive: -41.8%
Cc1ccc(C(=O)NC(C)c2ccc(-n3ccnc3)cc2)cc1S(=O)(=O)N1CCOCC1 (stereo unspecified) | active: -97.5%
CCCCCN(C(=O)NC(=O)Nc1ccc(C)cc1C)S(C)(=O)=O | inactive: 22.6%
CCS(=O)(=O)c1nc(S(=O)(=O)c2ccc(Cl)cc2)c(N2CCOCC2)s1 | inconclusive: -54.8%
Cc1ccc(-n2[nH]c(C)c(C=Nc3ccc(S(=O)(=O)N4CCOCC4)cc3)c2=O)c(C)c1 | inconclusive: -51.5%
CCC(C)c1ccc(C2C3=C(Nc4nc(N)[nH]c(=O)c42)c2ccccc2C3=O)cc1 (stereo unspecified) | active: -65%
CN(C)C(CNc1ccc([N+](=O)[O-])cc1C#N)c1ccccc1 (stereo unspecified) | inactive: 0.908%
CCOc1ccccc1CNS(=O)(=O)c1cc(-c2cc(C)no2)ccc1OC | inactive: -17.7%
CC(C)c1ccc(/C=C/C(=O)Nc2nncs2)cc1 | inconclusive: -42.9%
CC(C)n1nc(C(=O)OCC(=O)NCCc2ccc(S(N)(=O)=O)cc2)c2ccccc2c1=O | inactive: 0%
S=C=Nc1cccc(C2(N3CCCCC3)CCCCC2)c1 | inconclusive: -54.5%
CC(C)(C)c1csc(NC(=O)Cc2ccc(S(=O)(=O)N3CCOCC3)s2)n1 | inconclusive: -42.7%
Cc1cc(C(=O)CN2C(=O)NC(c3ccccc3)(c3ccccc3)C2=O)c(C)n1Cc1ccco1 | inactive: 20.8%
CCCOc1ccc(/C=N/n2nnnc2N)cc1OC | inactive: 22.7%
Cc1ccc(S(=O)(=O)NC2(C(F)(F)F)NC(=O)N(c3ccccc3F)C2=O)cc1 (stereo unspecified) | inconclusive: -53.3%

Structure (SMILES) | activity change, negative = inhibition
COC(=O)c1[nH]c2ccccc2c1NC(=O)CN1CCN(Cc2ccc3c(c2)OCO3)CC1 | inconclusive: -45.2%
CC(C)Cn1cc(-c2cccc3nccn23)cn1 | inactive: 25.1%
COc1cc(/C=N/NC(=O)NC2CCCCC2)cc(OC)c1O | inactive: -3.79%
COc1ccc(S(=O)(=O)Nc2ccc(N3CCOCC3)cc2)cc1[N+](=O)[O-] | inactive: -11%
COc1ccc(-c2cc(C(=O)Nc3cc(C)n(Cc4ccc(Cl)cc4)n3)no2)cc1OC | inconclusive: -46.2%
Cn1c2c(c(=O)n(C)c1=O)C(C(F)(F)F)(C(F)(F)F)N=C(C1CCCCC1)N2 | inconclusive: -57.8%
O=C(c1ccc(F)cc1)C1CCN(Cc2ccccc2F)CC1 | inconclusive: -59.8%
Nc1cc[n+](CC(=O)c2ccc3c(c2)OCCO3)cc1 | active: -82.3%
O=C(NNC(=O)c1cccnc1SCc1cccc([N+](=O)[O-])c1)c1ccccn1 | active: -99.6%
CCOc1ccc(C(O)Cn2c(=N)n(CCN3CCCCC3)c3ccccc32)cc1 (stereo unspecified) | inconclusive: -54%
Cc1ccccc1OCCSc1nc2ccccc2n1CCC(=O)O | inactive: 35%
Cc1ccc2nc(C)c3c(c2c1)N(c1ccc(F)cc1)CC3 | inconclusive: -44.1%
Fc1ccc(NC(=S)NC2CCN(Cc3ccccc3)CC2)cc1 | inactive: -20.6%
COc1ccc(C)cc1NC(=O)CN(C)S(=O)(=O)c1ccc2c(c1)CCCN2C(C)=O | inconclusive: -42.7%
COc1cccc(/C=N/NC(=O)c2ccoc2C)c1O | active: -81.8%
S=C1SCN(CC2CC2)CN1CC1CC1 | active: -77.1%
COc1ccc(C2Nc3ccccc3-n3c(-c4ccccc4)c4c(=O)n(C)c(=O)n(C)c4c32)cc1 (stereo unspecified) | inactive: 5.85%
CC1CCc2c(sc3nn[nH]c(=O)c23)C1 (stereo unspecified) | inconclusive: -45.9%
COc1ccc(C(=O)NCc2cnn(C)c2)cc1OC1CCN(C(C)C)CC1 | inconclusive: -41.4%
CC(C)=CCC[C@H](C)C[C@@H]1CC2=C(C(=O)OC(C)(C)O2)[C@H](c2ccc(Cl)cc2)O1 | inactive: -4.74%
COc1ccccc1S(=O)(=O)NCc1ccc(C(=O)N(C)Cc2ccc(F)cc2)cc1 | inconclusive: -47.9%
CC(C)(C)OC(=O)N1CCC(C(=O)Nc2ccc(C(=O)N3CCCCC3)cc2)CC1 | inactive: 30.9%

A different layout for 3 compounds above.
Structure (SMILES),"activity change, negative = inhibition"
COc1ccc(C(=O)NCc2cnn(C)c2)cc1OC1CCN(C(C)C)CC1,inconclusive: -41.4%
CC(C)=CCC[C@H](C)C[C@@H]1CC2=C(C(=O)OC(C)(C)O2)[C@H](c2ccc(Cl)cc2)O1,inactive: -4.74%
COc1ccccc1S(=O)(=O)NCc1ccc(C(=O)N(C)Cc2ccc(F)cc2)cc1,inconclusive: -47.9%

(more compounds)

Structure (SMILES) | activity change, negative = inhibition
COc1ccc(-c2ocnc2C(=O)NCc2nn(-c3ccccc3)nc2C)cc1 | inconclusive: -51.9%
c1cncc(CNc2nc(N3CCOCC3)nc(N3CCOCC3)n2)c1 | inactive: -9.38%
CN(CCOc1ccccc1)S(=O)(=O)c1ccccc1C#N | inconclusive: -40.4%
c1coc(CNc2nc3nonc3nc2NCc2ccco2)c1 | active: -71.6%
Cn1c2ccc(F)cc2c2nnc(SCCN3CCOCC3)nc21 | inactive: 26.6%
C[n+]1ccccc1/C=C/c1c(F)cccc1F | inconclusive: -48.5%
COc1cccc(CN(C(=O)c2oc3ccc(Br)cc3c2C)C2CCS(=O)(=O)C2)c1 (stereo unspecified) | inactive: -7.67%
CCOCCCN(C(=O)CNC(=O)c1ccco1)C(C(=O)NC1CCCC1)c1cccc(OC)c1 (stereo unspecified) | inactive: -15.7%
CCc1ccccc1NC(=O)c1ccc(Cn2cc([N+](=O)[O-])cn2)cc1 | inactive: -25%
O=C(Nc1cnc2ccccn2c1=O)c1ccc(F)cc1 | inactive: 55.9%
CCC(=O)N1CCN(c2ccccc2NC(=O)COc2ccc(C(C)C)cc2)CC1 | inconclusive: -59.2%
O=C(CSc1ccc(Cl)cc1)Nc1cc(-c2nc3ncccc3o2)ccc1Cl | inactive: 20.4%
CC(=O)Nc1ccc(NC(=O)Cn2cc3c(n2)CCCCC3)cc1 | inactive: 8.88%
CCOc1ccc(N2C(=O)CC(N(CCc3ccc(OC)c(OC)c3)C(=S)Nc3ccccc3)C2=O)cc1 (stereo unspecified) | active: -67.5%
O=c1[nH]nc(SCc2nnc(-c3cccc(Cl)c3)o2)n1C1CCCCC1 | inconclusive: -58.7%
CCOC(=O)Nc1ccc2c(c1)C(=NNC(N)=S)c1ccccc1-2 | inconclusive: -42.3%
COc1ccccc1CNc1nc(NCc2ccc(C(C)C)cc2)c2sccc2n1 | inconclusive: -55.8%
COc1ccc(OC)c(NC(=O)c2oc3c(c2C)-c2nn(Cc4ccc(Cl)cc4)cc2CC3)c1 | inconclusive: -55.8%
COc1ccc(C(=O)C2CCCN(C(=O)c3ccccc3C(C)=O)C2)cc1F (stereo unspecified) | inconclusive: -46.9%
Fc1cccc(CNc2ncnc3ccc(-c4ccc5c(c4)OCO5)cc23)c1 | active: -92.1%
Cc1cn2c(=O)cc(COC(=O)c3cccc(NC(=O)COc4ccccc4)c3)nc2s1 | inconclusive: -51.6%
CCCCN(CC)CCNC(=O)c1cc2c(=O)[nH]c3ccc(C)cc3c2s1 | active: -64.6%

Structure (SMILES) | activity change, negative = inhibition
Cc1ncc(C(=O)Nc2ccccc2)[nH]1 | inactive: 50.6%
COc1cc(-c2nc(CN3CCCCC3CCNC(C)=O)c(C)o2)ccc1F (stereo unspecified) | inconclusive: -56.5%
CCOCCCNC(=O)C1(O)c2cc(Br)ccc2NC(=O)N1c1ccc(OCC)cc1 (stereo unspecified) | inconclusive: -47.2%
Cc1ccnc(NC(=O)c2ccc3c(c2)NC(=O)C(C)S3)c1 (stereo unspecified) | inactive: 5.37%
O=C(CN1CCN(c2ccc(O)cc2)CC1)Nc1ccccc1C(=O)NCCc1ccccc1 | active: -60.5%
CC(NC(=O)c1cc2sccc2n1C)c1ccc2c(c1)OCCO2 (stereo unspecified) | inconclusive: -56.5%
CC(=O)O[C@H]1C[C@@H]2CC[C@@H]3[C@H](CC[C@@]4(C)[C@H]3C[C@H]([N+]3(C)CCCCC3)[C@@H]4OC(C)=O)[C@@]2(C)C[C@@H]1[N+]1(C)CCCCC1 | inconclusive: -59.9%
CN(C(=O)c1ccco1)c1nc(-c2ccc(F)cc2)cs1 | inactive: 12.3%
CNC[C@H](Cc1ccccc1)NC[C@@H](Cc1cccc2ccccc12)NCCc1ccc(C)cc1 | inconclusive: -55.4%
COc1cc(-c2noc(-c3ccc(N4CCCC4)c([N+](=O)[O-])c3)n2)cc(OC)c1OC | inactive: -6.79%
O=C(c1ccco1)N1CCN(C(=O)c2cc(-c3ccccc3)nc3ccccc23)CC1 | inactive: 69.1%
CN(C)S(=O)(=O)c1ccc(C(=O)Nc2cc(=O)n(C)c(=O)n2C)cc1 | inconclusive: -44%
Clc1ccc(CSc2nnc(-c3c[nH]c4ccccc34)o2)cc1 | inconclusive: -46.7%
CCOc1cccc(-c2c(C(=O)N/N=C(\C)c3cccs3)nnn2-c2nonc2N)c1 | inconclusive: -41.3%
CN(C)CCCN(Cc1cc2cc3c(cc2[nH]c1=O)OCO3)C(=S)Nc1cccc(Cl)c1 | inconclusive: -47.1%
OC(CN(c1ccccc1)c1ccccc1)Cn1cnc2ccccc21 (stereo unspecified) | inconclusive: -54.2%
CCOC(=O)c1c(C)[nH]c(O)c1C=Nc1ccc(Cl)cc1 | inactive: -6.5%
COCCNc1nc(NCc2cccc(OC)c2)c2sc(-c3ccccc3)cc2n1 | inactive: -20.5%
CC(=O)N1CCOCC1c1cc(C(=O)Nc2ccccc2)no1 (stereo unspecified) | inconclusive: -47.3%
CNc1nc(Oc2ccc3sc(C)nc3c2)c2sccc2n1 | inconclusive: -44%
